The results in this text go back to patent publication US4316891A (The Salk Institute for Biological Studies, priority 1980, dated 1982).

HELM strings list residues between dots; [ac] is acetyl, [am] amide, other brackets name non-standard units.

The data set in a line: Boc solid-phase peptide synthesis; chloromethylated resin or hydroxymethyl resin. The conditions noted are these: whole synthesis.

On to “PEPTIDE1{S.A.N.S.N.P.A.M.A.P.R.E.R.K.A.G.C.K.N.F.F.W.K.T.F.T.S.C}$PEPTIDE1,PEPTIDE1,17:R3-28:R3$$$V2.0”, for which the “final purity (method not given)” value is listed as “greater than 97%”.
